For one molecule, binding results are on record in article PMC7732854.

The target in this test is T1, microtubule-associated tumor-suppressor 1 (MTUS1) (human (endogenous in Caki-1)) (UniProt Q9ULD2).
T1 sequence: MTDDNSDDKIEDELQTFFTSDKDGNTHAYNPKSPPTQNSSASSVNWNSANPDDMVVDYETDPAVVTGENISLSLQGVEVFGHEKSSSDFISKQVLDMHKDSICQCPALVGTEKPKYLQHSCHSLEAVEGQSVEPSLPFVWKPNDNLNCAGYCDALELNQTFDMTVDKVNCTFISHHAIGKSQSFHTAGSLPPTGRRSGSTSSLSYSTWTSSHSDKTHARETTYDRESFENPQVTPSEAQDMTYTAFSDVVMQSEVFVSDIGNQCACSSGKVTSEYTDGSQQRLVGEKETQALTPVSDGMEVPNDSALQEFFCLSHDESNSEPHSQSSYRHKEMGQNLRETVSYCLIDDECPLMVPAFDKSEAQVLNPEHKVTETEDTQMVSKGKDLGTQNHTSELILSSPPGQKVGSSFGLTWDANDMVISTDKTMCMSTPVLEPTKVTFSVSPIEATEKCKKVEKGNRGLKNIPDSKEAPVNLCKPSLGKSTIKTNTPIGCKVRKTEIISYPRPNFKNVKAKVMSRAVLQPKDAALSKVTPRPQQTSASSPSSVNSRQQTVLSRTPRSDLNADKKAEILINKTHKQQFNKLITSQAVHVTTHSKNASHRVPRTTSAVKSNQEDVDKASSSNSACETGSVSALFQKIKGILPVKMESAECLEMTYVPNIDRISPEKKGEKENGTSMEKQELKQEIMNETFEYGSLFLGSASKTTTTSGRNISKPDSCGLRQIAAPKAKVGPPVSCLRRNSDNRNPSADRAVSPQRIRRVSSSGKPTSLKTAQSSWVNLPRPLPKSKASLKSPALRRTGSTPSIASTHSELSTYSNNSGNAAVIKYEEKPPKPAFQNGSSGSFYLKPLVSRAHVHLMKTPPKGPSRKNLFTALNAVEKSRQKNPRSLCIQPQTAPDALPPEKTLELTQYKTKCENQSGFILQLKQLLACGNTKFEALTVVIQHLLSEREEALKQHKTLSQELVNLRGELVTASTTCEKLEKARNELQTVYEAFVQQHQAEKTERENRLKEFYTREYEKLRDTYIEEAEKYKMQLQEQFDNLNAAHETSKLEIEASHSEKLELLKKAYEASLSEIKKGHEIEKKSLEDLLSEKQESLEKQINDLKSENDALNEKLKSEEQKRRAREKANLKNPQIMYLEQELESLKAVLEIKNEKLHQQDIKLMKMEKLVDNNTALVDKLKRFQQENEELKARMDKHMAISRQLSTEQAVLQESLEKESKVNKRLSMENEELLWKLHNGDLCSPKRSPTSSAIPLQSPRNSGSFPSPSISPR
The experiment in a line: co-IP; Caki-1 cell lysate precipitated with MTUS1 antibody (ab198176) at 4 °C for 2 h, protein A Sepharose CL-4B beads at 4 °C overnight, washed thrice with RIPA buffer, western blot. Background: Immunoblotting shows a protein as a band on a membrane.

These are yes or no findings as the source states them, for the method shown. Binding seen in cells or lysates may run through a third protein. Some entries that bind do so weakly or less than the wild type.

B1: KIF2C (Kinesin family member 2C) (protein, UniProt Q99661 1-725)
chain: MAMDSSLQARLFPGLAIKIQRSNGLIHSANVRTVNLEKSCVSVEWAEGGATKGKEIDFDDVAAINPELLQLLPLHPKDNLPLQENVTIQKQKRRSVNSKIPAPKESLRSRSTRMSTVSELRITAQENDMEVELPAAANSRKQFSVPPAPTRPSCPAVAEIPLRMVSEEMEEQVHSIRGSSSANPVNSVRRKSCLVKEVEKMKNKREEKKAQNSEMRMKRAQEYDSSFPNWEFARMIKEFRATLECHPLTMTDPIEEHRICVCVRKRPLNKQELAKKEIDVISIPSKCLLLVHEPKLKVDLTKYLENQAFCFDFAFDETASNEVVYRFTARPLVQTIFEGGKATCFAYGQTGSGKTHTMGGDLSGKAQNASKGIYAMASRDVFLLKNQPCYRKLGLEVYVTFFEIYNGKLFDLLNKKAKLRVLEDGKQQVQVVGLQEHLVNSADDVIKMIDMGSACRTSGQTFANSNSSRSHACFQIILRAKGRMHGKFSLVDLAGNERGADTSSADRQTRMEGAEINKSLLALKECIRALGQNKAHTPFRESKLTQVLRDSFIGENSRTCMIATISPGISSCEYTLNTLRYADRVKELSPHSGPSGEQLIQMETEEMEACSNGALIPGNLSKEEEELSSQMSSFNEAMTQIRELEEKAMEELKEIIQQGPDWLELSEMTEQPDYDLETFVNKAESALAQQAKHFSALRDVIKALRLAMQLEEQASRQISSKKRPQ
On to B1, for which the binding entry was “binds”.
